Laboratory results reported in PubChem BioAssay AID192 (DTP/NCI, 2004).
The list shows only some results of the screen, not a fair sample: it is rich in T/C values a quarter to a half above the control, in often repeated tests (any T/C) and in doses without a T/C. Further doses and runs are listed elsewhere. T/C: endpoint of the treated group in % of that of the vehicle group. Some entries give survivors of the animals treated and no T/C: the source files T/C as zero there, which appears to mark a toxic dose or a test without result, not a measured value. Some survivor counts are full or nearly so, which does not show that the dose was tolerated: survival well below the control is almost never listed, so the zero probably covers shortened survival too. Counts of survivors are from the toxicity check (mostly the fifth day) where no day follows; animals may have died later. Schedule codes are those of the source, taken here to give the interval after Q, in days (D) or hours (H), and the number of doses after X. Where survival is the endpoint, the PubChem record calls one and a half times the control and up active, and a quarter to a half above the control has no call in these data; cut-offs in other NCI protocols can differ. Some entries hold several experiments; the results are listed from low to high. Some T/C values are followed by the survivors on the day toxicity was checked, most often the fifth; without a count, all were alive then.

Test system: BDF1 mice, B16 melanoma ip, median survival T/C
Assay: NCI In Vivo Anticancer Drug Screen. Data for tumor model B16 Melanoma (intraperitoneal) in B6D2F1 (BDF1) mice
Conditions: T/C endpoint: median survival time, higher T/C = longer survival
Summary of the method: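 Mice with transplantable tumors; drug vs vehicle groups; endpoint survival or tumor size; value = T/C.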

[1] = dose: 100.0 mg/kg/injection, schedule: Q01DX009 (ip), vehicle: saline
[2] = dose: 150.0 mg/kg/injection, schedule: Q01DX009 (ip), vehicle: saline

`OC(CCl)CN1CC[N+]2(CC1)CC[N+]1(CCN(CC(O)CCl)CC1)CC2` (configuration not stated) was tested, and the T/C (dose: 13.0 mg/kg/injection, schedule: Q01DX009 (ip), vehicle: water) was 126 % of control, the T/C (dose: 19.0 mg/kg/injection, schedule: Q01DX009 (ip), vehicle: water) was 125 % of control and the T/C (dose: 29.0 mg/kg/injection, schedule: Q01DX009 (ip), vehicle: water) was 130 % of control. The T/C (dose: 32.0 mg/kg/injection, schedule: Q01DX009 (ip), vehicle: water) was 127 % of control, the T/C (dose: 32.0 mg/kg/injection, schedule: Q03HX016 (ip), vehicle: water) was 128 % of control and the T/C (dose: 32.0 mg/kg/injection, schedule: Q03HX024 (ip), vehicle: water) was 141 % of control. For the same molecule, the survivor count (dose: 37.5 mg/kg/injection, schedule: Q01DX009 (ip), vehicle: saline) was 10 of 10, the T/C (dose: 37.5 mg/kg/injection, schedule: Q01DX009 (ip), vehicle: water) was 133 % of control and the T/C (dose: 44.0 mg/kg/injection, schedule: Q01DX009 (ip), vehicle: water) was 136 % of control. The T/C (dose: 50.0 mg/kg/injection, schedule: Q01DX009 (ip), vehicle: saline) was 126 % of control, the T/C (dose: 64.0 mg/kg/injection, schedule: Q01DX009 (ip), vehicle: water) was 139 % of control and the T/C (dose: 64.0 mg/kg/injection, schedule: Q03HX008 (ip), vehicle: water) was 131 % of control. For the same molecule, the T/C (dose: 64.0 mg/kg/injection, schedule: Q03HX016 (ip), vehicle: water) was 145 % of control, the T/C (dose: 64.0 mg/kg/injection, schedule: Q03HX024 (ip), vehicle: water) was 131 % of control and the T/C (dose: 66.0 mg/kg/injection, schedule: Q01DX009 (ip), vehicle: saline) was 126 % of control [9 of 10 alive]. For the same molecule, the survivor count (dose: 75.0 mg/kg/injection, schedule: Q01DX009 (ip), vehicle: saline) was 9 of 10, the T/C (dose: 75.0 mg/kg/injection, schedule: Q01DX009 (ip), vehicle: water) was 145 % of control and the T/C [1] was 127 and 128 % of control. The T/C (dose: 128.0 mg/kg/injection, schedule: Q01DX009 (ip), vehicle: water) was 145 % of control, the T/C (dose: 128.0 mg/kg/injection, schedule: Q03HX008 (ip), vehicle: water) was 139 % of control and the T/C (dose: 128.0 mg/kg/injection, schedule: Q03HX016 (ip), vehicle: water) was 145 % of control. For the same molecule, the T/C [2] was 135 % of control, the survivor count [2] was 9 of 10 and the T/C (dose: 200.0 mg/kg/injection, schedule: Q01DX009 (ip), vehicle: saline) was 143 % of control. The T/C (dose: 225.0 mg/kg/injection, schedule: Q01DX009 (ip), vehicle: saline) was 134 % of control, the survivor count (dose: 225.0 mg/kg/injection, schedule: Q01DX009 (ip), vehicle: water) was 10 of 10 and the T/C (dose: 256.0 mg/kg/injection, schedule: Q01DX009 (ip), vehicle: water) was 137 % of control. For the same molecule, the survivor count (dose: 256.0 mg/kg/injection, schedule: Q03HX008 (ip), vehicle: water) was 1 of 10, the survivor count (dose: 300.0 mg/kg/injection, schedule: Q01DX009 (ip), vehicle: saline) was 0 of 10 and the survivor count (dose: 300.0 mg/kg/injection, schedule: Q01DX009 (ip), vehicle: water) was 6 of 6. For the same molecule, the T/C (dose: 400.0 mg/kg/injection, schedule: Q01DX009 (ip), vehicle: saline) was 143 % of control.
`Nc1nnc[se]1` was tested, and the survivor count (dose: 50.0 mg/kg/injection, schedule: Q01DX009 (ip), vehicle: saline with Tween-80) was 10 of 10 and the survivor count (dose: 100.0 mg/kg/injection, schedule: Q01DX009 (ip), vehicle: saline with Tween-80) was 6 of 10.
With `CC(CC(C)O)=NCCN=C(C)CC(C)O.[Ni]` (configuration not stated) the T/C (dose: 3.0 mg/kg/injection, schedule: Q04DX003 (ip), vehicle: saline with Tween-80) was 147 % of control and the T/C (dose: 6.0 mg/kg/injection, schedule: Q04DX003 (ip), vehicle: saline with Tween-80) was 134 % of control.
In the case of `NNC(=O)c1ccccc1`, the survivor count [1] is reported as 8 of 10.
In the case of `CCC(=O)OCC(=O)[C@]1(O)Cc2c(O)c3c(c(O)c2[C@@H](OC2CC(N)C(O)C(C)O2)C1)C(=O)c1c(OC)cccc1C3=O` (some centres not stated), the T/C (dose: 0.25 mg/kg/injection, schedule: Q01DX009 (ip), vehicle: saline) is reported as 128 % of control, the T/C (dose: 0.5 mg/kg/injection, schedule: Q01DX009 (ip), vehicle: saline) is reported as 146 % of control and the survivor count (dose: 4.0 mg/kg/injection, schedule: Q01DX009 (ip), vehicle: saline) is reported as 10 of 10. For the same molecule, the survivor count (dose: 8.0 mg/kg/injection, schedule: Q01DX009 (ip), vehicle: saline) was 10 of 10.
`CC(=O)Nc1cccc(OCCCOc2cccc(C(=N)N)c2)c1` was tested, and the survivor count (dose: 75.0 mg/kg/injection, schedule: Q04DX003 (ip), vehicle: Klucel (hydroxypropylcellulose) (HPC)) was 10 of 10, the survivor count (dose: 150.0 mg/kg/injection, schedule: Q04DX003 (ip), vehicle: Klucel (hydroxypropylcellulose) (HPC)) was 10 of 10 and the survivor count (dose: 200.0 mg/kg/injection, schedule: Q01DX009 (ip), vehicle: Klucel (hydroxypropylcellulose) (HPC)) was 10 of 10. The survivor count (dose: 300.0 mg/kg/injection, schedule: Q04DX003 (ip), vehicle: Klucel (hydroxypropylcellulose) (HPC)) was 7 of 10.
`NC1=NC(=S)C2N=C(N=Nc3ccc(C(=O)NC(CCC(=O)O)C(=O)O)cc3)N=C2N1` (configuration not stated) was tested, and the survivor count (dose: 3.12 mg/kg/injection, schedule: Q01DX009 (ip), vehicle: Klucel (hydroxypropylcellulose) (HPC)) was 10 of 10, the survivor count (dose: 6.25 mg/kg/injection, schedule: Q01DX009 (ip), vehicle: Klucel (hydroxypropylcellulose) (HPC)) was 10 of 10 and the survivor count (dose: 12.5 mg/kg/injection, schedule: Q01DX009 (ip), vehicle: Klucel (hydroxypropylcellulose) (HPC)) was 10 of 10. For the same molecule, the survivor count (dose: 25.0 mg/kg/injection, schedule: Q01DX009 (ip), vehicle: Klucel (hydroxypropylcellulose) (HPC)) was 10 of 10, the survivor count (dose: 50.0 mg/kg/injection, schedule: Q01DX009 (ip), vehicle: Klucel (hydroxypropylcellulose) (HPC)) was 7 of 10 and the survivor count (dose: 100.0 mg/kg/injection, schedule: Q01DX009 (ip), vehicle: Klucel (hydroxypropylcellulose) (HPC)) was 0 of 10.
For `C=COCC(C)C` (tested in a mixture with another compound), the survivor count (dose: 3.13 mg/kg/injection, schedule: Q01DX009 (ip), vehicle: saline with Tween-80) was 10 of 10 and the survivor count (dose: 6.25 mg/kg/injection, schedule: Q01DX009 (ip), vehicle: saline with Tween-80) was 10 of 10.
`C=CCN(CC=C)c1ccc(N(CC)CC)cc1` was tested, and the survivor count (dose: 200.0 mg/kg/injection, schedule: Q04DX003 (ip), vehicle: Klucel (hydroxypropylcellulose) (HPC)) was 10 of 10 and the survivor count (dose: 400.0 mg/kg/injection, schedule: Q04DX003 (ip), vehicle: Klucel (hydroxypropylcellulose) (HPC)) was 6 of 10.
With `CCN(CC)C1CC(O[C@H]2C[C@](O)(C(C)=O)Cc3c(O)c4c(c(O)c32)C(=O)c2c(OC)cccc2C4=O)OC(C)C1O` (some centres not stated) the T/C (dose: 1.0 mg/kg/injection, schedule: Q01DX009 (ip), vehicle: water) was 129 % of control, the T/C (dose: 2.0 mg/kg/injection, schedule: Q01DX009 (ip), vehicle: water) was 127 % of control [9 of 10 alive] and the T/C (dose: 4.0 mg/kg/injection, schedule: Q01DX009 (ip), vehicle: water) was 138 % of control [9 of 10 alive]. The survivor count (dose: 8.0 mg/kg/injection, schedule: Q01DX009 (ip), vehicle: water) was 10 of 10 and the survivor count (dose: 16.0 mg/kg/injection, schedule: Q01DX009 (ip), vehicle: water) was 10 of 10.
`CCCCCCCCCCCCCCCCCCNC(=O)Nc1c(C)cc(C)cc1C` was tested, and the survivor count (dose: 200.0 mg/kg/injection, schedule: Q01DX009 (ip), vehicle: gum acacia) was 10 of 10 and the survivor count (dose: 400.0 mg/kg/injection, schedule: Q01DX009 (ip), vehicle: gum acacia) was 10 of 10.
With `CCCCCCC(=O)CCCC(C)CCCC(C)C` (configuration not stated) the survivor count (dose: 400.0 mg/kg/injection, schedule: Q01DX009 (ip), vehicle: Klucel (hydroxypropylcellulose) (HPC)) was 8 of 10.
